From the supplement of paper PMC5949888
± gives the standard deviation of the averaged measurements. Most values lie at the floor of the assay. Slopes are relative: functional sequences can read slightly below zero.

Tested on: Saccharomyces cerevisiae PS128 hsf1 delta, HSF1(1-493) fusion
Assay: growth estimate (transactivation domain function in HSF1 fusion, heat-shock survival) (a.u. (slope of normalised read count over time)); higher = stronger growth at 37°C, i.e. more transactivation activity
Details: library: random library
Protocol: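 Random 60-nt DNA library encoding peptides of up to 20 aa, fused to the C-terminus of yeast HSF1 residues 1-493 (C-terminal TAD deleted) and expressed from the native HSF1 promoter on a CEN plasmid in hsf1-deleted S. cerevisiae PS128. Cells were selected at 37°C on -trp 5-FOA plates for 0, 2, 4, 6 and 8 days and amplicons were sequenced. Growth estimate is the slope of a robust linear fit of total-sum-normalised read counts (normalised to the first time point) over time, using at least 2 replicates. Sequences are classed functional (TAD activity) above a threshold of -0.13, set from stop-codon control sequences.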

Substance | growth estimate
QARVMLKNTLLTGPDHQANP | < -0.25
WNHICSEGGAVLLSV | < -0.25
LMRVDTWGDQRARPRQL | < -0.25
SVWRRALENCKRVVVQIQQR | < -0.25
NPTRVTEVWEGVSVWIVYRP | < -0.25
LCSGLVAGQIQTR | < -0.25
GCICALQWTEM | < -0.25
VRSGVGTPPVRSARD | -0.247
ICNP | < -0.25
AIPSQCRYKVRAKAAGSC | < -0.25
FLWKPSVLGLIVLQS | < -0.25
RIYGSASGRITGTWTELTGT | < -0.25
VQLESSLRYWNLVHLTGVGT | < -0.25
QITKPTCQYNSSAHGWSAT | < -0.25
APGHFQIVPGSSGSLQIGIY | < -0.25
RLYLRPFLELRAANRVKLKR | < -0.25
LDSLRAFG | < -0.25
PGRA | < -0.25
STVGKF | < -0.25
FASWSVAQVNLRFCLTGEAS | < -0.25
SKHDSCLWRKKCIGLQG | < -0.25
PPTVNSSLREISGRDFCTGV | < -0.25
VMTAQEGLVEGSIGWSIPNS | -0.231
THCFRSK | < -0.25
LYGKAGDGRKTLSLYGGKRV | < -0.25
VVVQSLKRRL | -0.238

Substance | growth estimate
SVRSKQH | < -0.25
SNVS | < -0.25
CVVGTPFALSTIDCRTKHVE | < -0.25
LRL | -0.248 ± 0.0041
TNF | < -0.25
WYEGKVPTELPT | < -0.25
LAGRNRSLSRGRCARDWR | < -0.25
ARPHICMKYRRYTSIAWVIA | < -0.25
SLQ | < -0.25
PVDIY | < -0.25
QCCGKLLNGRRANKAVRAR | < -0.25
RGCPVTPVT | -0.118
LVLLTTGRTNL | < -0.25
LIRRRLICAYTGPKT | < -0.25
VSLDT | < -0.25
VLPTNLRERKGPIRV | < -0.25
RSAAGCSALEGGKPTTVKYR | < -0.25
RNNQSVESATTHEFIKLHSS | < -0.25
VIECGRPQTKRGTVVKCNYS | < -0.25
VQAECSGYRAQPVAV | < -0.25
YDL | < -0.25
AVWERGCVGFGTILAWMAWA | < -0.25
GVLFSSLSLTMVPLPACDRS | < -0.25
THRTTYWESSIHRLIDGLIA | < -0.25
WTGLWGSGC | < -0.25
VPAVASNIRGVMSKAGPIMN | < -0.25

Substance | growth estimate
FVLPIPQV | < -0.25
ISGYAPHMHRTEARGRHVRR | < -0.25
ASLAAGISACPVVYAVRETI | -0.245
WSVVYDVGERDLGSPGSYSA | < -0.25
YGINSPEGNIYFFWSFRA | -0.231
SCLQ | < -0.25
NAIGMHDKCCRTEGVLWIPA | -0.112
LTEGRVKKDIFEYN | -0.246
SGRKWRAFRIWAECC | < -0.25
LGLPTLKRAKTRVHTGS | < -0.25
EGEFIDTPPS | < -0.25
TLLYTEYQLVPRPKGLVTCA | < -0.25
CEPGSGRGLNMRTRPSRL | < -0.25
SFLVRL | < -0.25
RFRSLVVSSPHAEVRKLCRS | < -0.25
IVGKWIVYI | < -0.25
CPACMTPIHRMIIWLDSRAP | < -0.25
RVRYVVGKFTLLSRSSRVYA | < -0.25
QCGYGDAQLTL | < -0.25
RCSPLLNERAEGGERSQSGT | < -0.25
AVGYVR | < -0.25
FEM | < -0.25
RVLDGNFESQGQARHPMESS | < -0.25
GSRPSTFPPAGVTVTRSRTR | < -0.25
RPSALREEVLDCSRQTSFL | < -0.25
KKTRHWKIVKMNGFLKPVQS | < -0.25

Substance | growth estimate
KRTKRRATQGRDRQTRGASI | < -0.25
FRCHGHPLVST | < -0.25
IIRSCARGGLAEGVTPQSIS | < -0.25
SAGTS | < -0.25
VESYITSLYELAISLMADPY | < -0.25
SCGS | < -0.25
GVIKSM | < -0.25
LSTRLIKKDGVASNRRLCSR | < -0.25
RGMMQAIYPRQQVTARCSMA | < -0.25
VVSSNVRPRDGLRGFQECR | < -0.25
LWRYSPCASGILFLIPTGFA | < -0.25
KPERQIH | < -0.25
RKVWSTHGEDAAIRPGGYAH | < -0.25
FAISVAGA | < -0.25
QRAACPSIETFRAEPGTPRS | < -0.25
KRNRGATPWG | < -0.25
RMNANS | < -0.25
THIRRTAESAVPFPPSRPLF | < -0.25
CVLRCTLFMRLCSGHVHL | < -0.25
ASFRIGHVCGTSLQKRTSKS | < -0.25
SLGHQNRPFADASGAVSLKP | < -0.25
APRSRKWRTGDCVRMDKPGA | < -0.25
REHQHKLDTGEQLSRGEGLR | < -0.25
RWSSLGCLPVNYGH | < -0.25
VSGFPVSQRPSRARLARVHL | < -0.25
VDTFHSCATPGRGPRHRIHW | < -0.25

Substance | growth estimate
KSTW | < -0.25
SCRHCWYAGFRSMN | < -0.25
CAEVWFTEVTRETKLKHTQA | < -0.25
PSRSIQ | < -0.25
VKPGCYVMVGGACQRSCAPG | < -0.25
QITVWTIGQGEVPVYPRFDH | < -0.25
HGWRSRMGL | < -0.25
DGIHGGDHPVKAWHSSLDT | < -0.25
RGPPIHS | < -0.25
YGTKGLRAMCHFLFFRSSDG | < -0.25
LCMDKSVADLSKCPVGY | < -0.25
YAERT | < -0.25
RYVEPD | < -0.25
YGMPFKSPVSS | < -0.25
VGARKGDYGKPRTRQSRSAR | < -0.25
SVPYAVARGRSTWVLYC | < -0.25
DRAQEQ | < -0.25
LCFRRRLESSPRFITCMVLN | < -0.25
GPSHINWGLSLRGGRTVLSL | < -0.25
YIRERRGGSLPRWTNTTSRF | < -0.25
WQTVTPRHVFTAVRHMYSR | < -0.25
GPFCPSSVC | < -0.25
SIS | < -0.25
VLKPGGGG | < -0.25
RVVPPPNGKHGRCWFRERYC | < -0.25
ILT | -0.248 ± 0.003

Substance | growth estimate
FVGPQRPDVLKEQGKPGGK | < -0.25
DPFGTKRCRFQVTFLYPTLF | < -0.25
ARNGRRVTGLCVDACGDLRF | < -0.25
LKTEIWARDLGPSIFDVQPP | < -0.25
EVEPSSGRRAMTKTAVYW | < -0.25
STSK | < -0.25
IYTGNGTPPRGGPVYLRHGL | < -0.25
RILCR | < -0.25
SHCPQVVIIRRRCTRFCPNV | < -0.25
GCTNRSHHNLGIHRSTLGVR | < -0.25
LIKTLRFIRSLIYLRGKGLR | < -0.25
MNLERNRHCHRCNLFVWGQV | < -0.25
CRNRLTRLTGVQTIGITAVG | < -0.25
SSEIMERSTSRL | < -0.25
GTSSFEEKALWQRVAVGSYR | < -0.25
CTDFGGQCPKLSRCSEGAPV | < -0.25
SSDA | < -0.25
FIHTS | < -0.25
GARF | < -0.25
QCRKGATSGASGWCRGYVLG | < -0.25
SHTSRIGQLS | < -0.25
